Results reported in the supplement of paper PMC10849652.
The other results are listed elsewhere or left out.

Sequences of proteins named here, by UniProt entry; tags and fusion partners are left off. A change or cut given only in a name is not applied to a line headed by its entry.
UniProt Q8TAG9: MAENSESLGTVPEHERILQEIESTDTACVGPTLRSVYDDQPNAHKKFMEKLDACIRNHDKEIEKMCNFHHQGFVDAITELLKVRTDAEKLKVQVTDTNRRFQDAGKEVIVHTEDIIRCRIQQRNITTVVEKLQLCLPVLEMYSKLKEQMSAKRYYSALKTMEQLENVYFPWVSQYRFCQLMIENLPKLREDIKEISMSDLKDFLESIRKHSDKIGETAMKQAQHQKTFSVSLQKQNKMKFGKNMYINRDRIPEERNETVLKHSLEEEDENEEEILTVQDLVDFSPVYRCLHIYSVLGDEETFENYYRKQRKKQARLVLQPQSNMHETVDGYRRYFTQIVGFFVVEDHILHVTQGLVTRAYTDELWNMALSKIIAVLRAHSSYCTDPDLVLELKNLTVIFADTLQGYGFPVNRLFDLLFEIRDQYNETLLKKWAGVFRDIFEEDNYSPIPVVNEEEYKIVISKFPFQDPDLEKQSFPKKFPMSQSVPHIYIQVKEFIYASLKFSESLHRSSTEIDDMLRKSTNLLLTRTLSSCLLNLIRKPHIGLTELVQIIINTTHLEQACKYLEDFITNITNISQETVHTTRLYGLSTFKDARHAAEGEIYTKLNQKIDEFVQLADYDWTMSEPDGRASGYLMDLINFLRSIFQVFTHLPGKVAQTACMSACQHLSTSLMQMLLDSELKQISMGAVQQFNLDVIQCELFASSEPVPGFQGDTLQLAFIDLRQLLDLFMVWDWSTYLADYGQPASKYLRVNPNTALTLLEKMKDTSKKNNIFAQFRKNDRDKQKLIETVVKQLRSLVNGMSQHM
UniProt P10768: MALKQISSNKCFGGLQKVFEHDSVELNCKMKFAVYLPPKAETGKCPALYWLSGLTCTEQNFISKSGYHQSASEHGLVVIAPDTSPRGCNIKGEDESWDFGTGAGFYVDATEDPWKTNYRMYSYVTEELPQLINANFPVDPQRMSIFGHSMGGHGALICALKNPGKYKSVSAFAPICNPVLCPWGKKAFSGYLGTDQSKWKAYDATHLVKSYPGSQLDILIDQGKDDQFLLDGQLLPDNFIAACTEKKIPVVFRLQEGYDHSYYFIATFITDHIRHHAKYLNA
UniProt Q9NUQ9: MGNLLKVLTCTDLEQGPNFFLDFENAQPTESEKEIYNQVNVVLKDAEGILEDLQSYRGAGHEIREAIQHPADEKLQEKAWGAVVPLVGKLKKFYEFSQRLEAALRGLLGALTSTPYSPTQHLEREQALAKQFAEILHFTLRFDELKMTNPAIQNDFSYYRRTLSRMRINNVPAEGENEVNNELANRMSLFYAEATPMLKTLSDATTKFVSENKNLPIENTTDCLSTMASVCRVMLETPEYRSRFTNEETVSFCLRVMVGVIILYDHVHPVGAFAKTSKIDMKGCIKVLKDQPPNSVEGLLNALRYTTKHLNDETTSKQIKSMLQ
UniProt Q9NWS6: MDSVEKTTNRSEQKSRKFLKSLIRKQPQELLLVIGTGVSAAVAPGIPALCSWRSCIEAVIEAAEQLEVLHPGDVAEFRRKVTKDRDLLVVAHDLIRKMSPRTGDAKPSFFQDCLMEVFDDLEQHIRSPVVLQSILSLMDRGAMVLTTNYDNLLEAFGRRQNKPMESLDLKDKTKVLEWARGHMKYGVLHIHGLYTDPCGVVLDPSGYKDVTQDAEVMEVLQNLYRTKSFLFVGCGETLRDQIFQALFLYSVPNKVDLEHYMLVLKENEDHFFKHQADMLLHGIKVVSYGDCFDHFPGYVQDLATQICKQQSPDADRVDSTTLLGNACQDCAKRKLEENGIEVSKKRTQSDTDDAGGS
UniProt O94905: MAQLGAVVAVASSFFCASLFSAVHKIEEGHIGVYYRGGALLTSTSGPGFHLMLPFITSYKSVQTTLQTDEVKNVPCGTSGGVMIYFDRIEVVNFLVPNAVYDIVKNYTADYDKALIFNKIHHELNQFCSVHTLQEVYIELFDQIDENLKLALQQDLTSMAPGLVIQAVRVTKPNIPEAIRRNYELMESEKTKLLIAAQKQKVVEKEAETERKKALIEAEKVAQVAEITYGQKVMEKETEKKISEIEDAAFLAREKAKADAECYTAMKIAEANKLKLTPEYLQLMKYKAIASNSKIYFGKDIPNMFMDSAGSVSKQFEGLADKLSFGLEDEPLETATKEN
UniProt Q969W3: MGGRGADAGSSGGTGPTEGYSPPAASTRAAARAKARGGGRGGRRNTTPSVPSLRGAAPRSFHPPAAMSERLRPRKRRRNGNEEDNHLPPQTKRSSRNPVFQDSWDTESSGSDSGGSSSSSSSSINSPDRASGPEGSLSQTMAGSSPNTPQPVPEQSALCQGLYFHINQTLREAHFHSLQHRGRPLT
UniProt P16930: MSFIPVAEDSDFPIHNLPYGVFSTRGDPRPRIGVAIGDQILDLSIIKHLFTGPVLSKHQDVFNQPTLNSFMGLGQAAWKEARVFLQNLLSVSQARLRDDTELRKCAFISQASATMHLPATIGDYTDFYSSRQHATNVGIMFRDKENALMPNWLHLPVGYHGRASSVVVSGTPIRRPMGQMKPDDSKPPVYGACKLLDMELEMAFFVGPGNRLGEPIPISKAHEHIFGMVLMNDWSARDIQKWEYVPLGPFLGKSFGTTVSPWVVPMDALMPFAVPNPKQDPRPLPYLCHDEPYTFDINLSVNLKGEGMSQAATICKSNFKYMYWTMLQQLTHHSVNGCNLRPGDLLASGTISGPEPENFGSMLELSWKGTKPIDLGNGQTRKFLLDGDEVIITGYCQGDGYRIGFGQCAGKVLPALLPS
UniProt Q9Y5Q0: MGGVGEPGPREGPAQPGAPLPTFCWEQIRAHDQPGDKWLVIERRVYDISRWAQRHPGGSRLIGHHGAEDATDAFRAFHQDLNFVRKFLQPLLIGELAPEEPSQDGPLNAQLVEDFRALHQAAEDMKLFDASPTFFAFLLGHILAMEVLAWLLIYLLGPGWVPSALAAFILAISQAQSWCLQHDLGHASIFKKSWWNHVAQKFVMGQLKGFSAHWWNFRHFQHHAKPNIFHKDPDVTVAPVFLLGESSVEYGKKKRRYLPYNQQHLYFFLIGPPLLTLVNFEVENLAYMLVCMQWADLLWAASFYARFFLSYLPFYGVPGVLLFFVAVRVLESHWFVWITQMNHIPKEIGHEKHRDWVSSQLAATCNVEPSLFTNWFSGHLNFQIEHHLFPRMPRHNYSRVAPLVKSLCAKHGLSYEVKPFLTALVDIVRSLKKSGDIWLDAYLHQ
UniProt Q9NYK6: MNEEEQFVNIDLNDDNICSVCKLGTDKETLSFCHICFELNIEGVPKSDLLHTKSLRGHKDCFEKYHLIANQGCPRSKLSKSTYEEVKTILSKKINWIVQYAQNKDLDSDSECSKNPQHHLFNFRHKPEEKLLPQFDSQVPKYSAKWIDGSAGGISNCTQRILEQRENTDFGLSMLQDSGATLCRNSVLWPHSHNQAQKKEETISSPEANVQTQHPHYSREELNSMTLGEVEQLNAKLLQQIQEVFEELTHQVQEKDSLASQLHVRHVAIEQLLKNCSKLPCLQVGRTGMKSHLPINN
UniProt Q6NZ36: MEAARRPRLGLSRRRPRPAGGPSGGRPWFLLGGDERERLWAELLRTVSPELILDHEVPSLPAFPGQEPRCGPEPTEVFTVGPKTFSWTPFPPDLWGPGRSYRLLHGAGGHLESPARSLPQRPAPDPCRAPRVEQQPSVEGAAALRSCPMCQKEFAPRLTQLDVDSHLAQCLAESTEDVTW
UniProt Q9BQ89: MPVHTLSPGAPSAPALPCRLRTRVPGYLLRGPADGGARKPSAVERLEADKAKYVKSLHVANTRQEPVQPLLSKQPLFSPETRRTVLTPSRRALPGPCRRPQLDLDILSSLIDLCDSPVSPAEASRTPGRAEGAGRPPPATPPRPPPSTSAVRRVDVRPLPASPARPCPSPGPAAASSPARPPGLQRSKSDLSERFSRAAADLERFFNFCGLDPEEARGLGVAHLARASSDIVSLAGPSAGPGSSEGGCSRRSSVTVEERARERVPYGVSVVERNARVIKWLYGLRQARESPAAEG
UniProt Q9NY74: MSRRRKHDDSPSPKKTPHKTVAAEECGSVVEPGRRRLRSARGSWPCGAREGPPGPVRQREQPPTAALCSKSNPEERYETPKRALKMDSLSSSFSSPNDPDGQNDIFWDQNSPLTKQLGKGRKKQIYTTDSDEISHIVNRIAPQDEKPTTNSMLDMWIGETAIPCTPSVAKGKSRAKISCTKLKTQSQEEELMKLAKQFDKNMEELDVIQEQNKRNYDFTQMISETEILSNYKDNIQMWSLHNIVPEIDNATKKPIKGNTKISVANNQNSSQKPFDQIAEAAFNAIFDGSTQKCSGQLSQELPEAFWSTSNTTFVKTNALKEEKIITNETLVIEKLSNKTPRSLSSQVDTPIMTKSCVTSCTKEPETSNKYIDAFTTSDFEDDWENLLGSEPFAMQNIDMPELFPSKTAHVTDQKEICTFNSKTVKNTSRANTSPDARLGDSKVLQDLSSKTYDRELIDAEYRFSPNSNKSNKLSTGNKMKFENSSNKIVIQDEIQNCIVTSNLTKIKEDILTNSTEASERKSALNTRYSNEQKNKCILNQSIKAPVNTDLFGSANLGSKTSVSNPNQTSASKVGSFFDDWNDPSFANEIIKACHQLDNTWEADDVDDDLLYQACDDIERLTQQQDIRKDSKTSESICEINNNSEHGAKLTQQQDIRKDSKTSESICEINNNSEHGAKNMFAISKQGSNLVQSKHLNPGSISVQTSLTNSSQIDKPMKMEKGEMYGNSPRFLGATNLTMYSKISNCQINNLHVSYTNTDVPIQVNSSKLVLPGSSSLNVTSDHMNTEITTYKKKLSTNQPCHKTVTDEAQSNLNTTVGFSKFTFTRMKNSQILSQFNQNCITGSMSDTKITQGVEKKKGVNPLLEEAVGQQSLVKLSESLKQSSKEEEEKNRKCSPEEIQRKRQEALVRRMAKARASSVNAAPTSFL
UniProt O43909: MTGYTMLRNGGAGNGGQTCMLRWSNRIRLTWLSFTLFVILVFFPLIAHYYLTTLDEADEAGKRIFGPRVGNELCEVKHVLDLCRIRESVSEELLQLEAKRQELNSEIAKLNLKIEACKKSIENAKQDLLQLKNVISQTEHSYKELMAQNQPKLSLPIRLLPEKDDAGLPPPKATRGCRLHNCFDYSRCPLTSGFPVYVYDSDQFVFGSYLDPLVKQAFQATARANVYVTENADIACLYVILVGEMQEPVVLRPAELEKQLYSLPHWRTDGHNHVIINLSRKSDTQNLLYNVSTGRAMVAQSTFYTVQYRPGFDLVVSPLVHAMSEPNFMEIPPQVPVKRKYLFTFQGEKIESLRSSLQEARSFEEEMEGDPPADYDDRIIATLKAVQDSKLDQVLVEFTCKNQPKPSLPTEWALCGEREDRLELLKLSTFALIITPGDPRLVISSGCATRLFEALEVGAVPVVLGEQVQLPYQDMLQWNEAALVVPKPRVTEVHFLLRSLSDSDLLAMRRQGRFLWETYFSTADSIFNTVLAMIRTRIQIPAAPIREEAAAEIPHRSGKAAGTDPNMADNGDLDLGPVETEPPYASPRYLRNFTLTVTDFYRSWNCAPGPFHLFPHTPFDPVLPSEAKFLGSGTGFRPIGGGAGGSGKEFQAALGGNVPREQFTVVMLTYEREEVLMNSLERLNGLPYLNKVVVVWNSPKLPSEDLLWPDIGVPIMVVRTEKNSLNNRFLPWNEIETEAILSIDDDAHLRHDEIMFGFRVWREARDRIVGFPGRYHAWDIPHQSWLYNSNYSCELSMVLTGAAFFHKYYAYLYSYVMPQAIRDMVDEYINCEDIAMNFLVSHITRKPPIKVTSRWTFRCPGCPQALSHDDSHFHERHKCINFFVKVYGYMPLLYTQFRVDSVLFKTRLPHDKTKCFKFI
UniProt Q6P1L5: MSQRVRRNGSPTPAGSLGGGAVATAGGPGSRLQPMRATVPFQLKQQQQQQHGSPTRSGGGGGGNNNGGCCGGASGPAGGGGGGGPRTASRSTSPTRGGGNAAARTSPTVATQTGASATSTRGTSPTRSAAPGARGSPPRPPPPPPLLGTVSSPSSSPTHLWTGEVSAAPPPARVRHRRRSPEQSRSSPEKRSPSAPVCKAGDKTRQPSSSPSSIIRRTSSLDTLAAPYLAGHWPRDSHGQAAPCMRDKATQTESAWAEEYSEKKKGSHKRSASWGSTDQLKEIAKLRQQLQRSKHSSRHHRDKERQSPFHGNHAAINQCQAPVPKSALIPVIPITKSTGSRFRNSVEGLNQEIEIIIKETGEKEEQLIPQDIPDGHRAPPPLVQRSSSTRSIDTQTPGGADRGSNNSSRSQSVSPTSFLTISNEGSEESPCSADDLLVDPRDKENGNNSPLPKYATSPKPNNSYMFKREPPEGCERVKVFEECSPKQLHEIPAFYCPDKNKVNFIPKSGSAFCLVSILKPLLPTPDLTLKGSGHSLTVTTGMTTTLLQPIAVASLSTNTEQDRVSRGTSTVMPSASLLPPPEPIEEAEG

Assays:
Experiment in all cases: log2 fold change, soluble protein after heating vs DMSO (PISA); higher = thermal stabilisation; K562 lysate, 10 uM; active = over 0.2 and 3.5 SD of the protein, either way, in both replicates (recomputed)
[1] = compound: C1=CC=C(C=C1)[C@H](COC2=CC3=C(C=C2)NC(=O)N3)NC(=O)C4=CC=CN(C4=O)CC5=CC(=C(C=C5)F)F
How it was run: (§1)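 Following dounce homogenisation of K562 pellets in PBS pH 7.4 with 1 mM MgCl2, crude extract at 1 mg/mL protein was incubated for 30 min with 10 μM compound. Aliquots were then heated for 3 min over 48°C-58°C and pooled, NP-40 was added to 0.5% at 4°C, and soluble protein was recovered as the supernatant at 21,000xg for 90 min. Channel-sum-equalised TMTpro 16plex LC-MS/MS quantified this protein. Each value, from duplicates, is a log-two fold change in thermal stability relative to solvent controls.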

[2] = compound: CC1=C(SC2=C1C(=N[C@H](C3=NN=C(N32)C)CC(=O)N)C4=CC=C(C=C4)Cl)C
How it was run: as §1

[3] = compound: CC1=C2C(=CC=C1)N=C(N(C2=O)C3=CC=CC=C3C)CN4C=NC5=C(N=CN=C54)N
How it was run: as §1

[4] = compound: Cc1sc2c(c1C)C(c1ccc(Cl)cc1)=N[C@@H](CC(=O)OC(C)(C)C)c1nnc(C)n1-2
How it was run: as §1

[5] = compound: c1ccc([C@@H]2C[C@H]2NC2CCNCC2)cc1
How it was run: as §1

Measured: log2 fold change

EXOC6 (UniProt Q8TAG9)
inactive: [1] -0.035 | [2] -0.022 | [3] -0.006 | [4] 0.037 | [5] 0.151

ESD (UniProt P10768)
inactive: [1] -0.004 | [2] 0.025 | [3] -0.008 | [4] 0.045 | [5] 0.013

FAM49B (UniProt Q9NUQ9)
inactive: [1] 0.032 | [2] -0.001 | [3] -0.016 | [4] -0.014 | [5] 0.024

FAM102B (UniProt Q5T8I3)
inactive: [1] -0.052 | [2] 0.099 | [3] 0.009 | [5] -0.035

FAM118A (UniProt Q9NWS6)
inactive: [1] -0.028 | [2] -0.033 | [3] -0.021 | [4] -0.108 | [5] -0.015

ERLIN2 (UniProt O94905)
inactive: [1] 0.009 | [2] -0.007 | [3] 0.016 | [4] -0.126 | [5] 0.143

FAM104A isoform 2 (UniProt Q969W3)
inactive: [1] 0.053 | [2] 0.02 | [4] -0.145

FAH isoform 2 (UniProt P16930)
inactive: [1] -0.151 | [2] 0.024 | [3] -0.034 | [4] 0.025 | [5] -0.299

FADS1, A0A0A0MR51
inactive: [1] 0.071 | [2] -0.019 | [3] -0.027 | [4] -0.035 | [5] 0.013

FADS3 (UniProt Q9Y5Q0)
inactive: [1] 0.021 | [2] 0.018 | [3] -0.227 | [4] -0.06 | [5] -0.115

EURL (UniProt Q9NYK6)
inactive: [4] -0.085 | [5] -0.006

FAAP20 isoform 2 (UniProt Q6NZ36)
inactive: [5] 0.152

FAM110A (UniProt Q9BQ89)
inactive: [1] 0.245 | [2] 0.143 | [5] -0.15

ETAA1 (UniProt Q9NY74)
inactive: [3] 0.06

EXTL3 (UniProt O43909)
inactive: [3] -0.172 | [4] -0.038 | [5] -0.112

FAM117B (UniProt Q6P1L5)
inactive: [3] 0.01 | [4] -0.187 | [5] 0.071
